Data published in the odorant receptor screen of Mainland et al. (2015).
Several values for one entry are separate records, joined by “and”; a condition that tells them apart may be missing. Identical values can stand only once. The list shows a part of the results. Each value is one well over the wells without odorant, computed here; the data are noisy.

These compounds were tested on OR6P1 clone 1034 (assay: odorant receptor activation (CRE luciferase / Renilla) (fold of no-odor wells); higher = more activation). Conditions: 100 µM.

Row | SMILES | odorant receptor activation
1 | CCCCCC(C)=O [2-heptanone] | 0.862
2 | CCCCCCC=O [heptaldehyde] | 1.82 and 0.998
3 | COc1cc(C)ccc1O [2-methoxy-4-methylphenol] | 2.12
4 | O=C1CCCCCCCCCCCCCCO1 [pentadecalactone] | 0.801
5 | CC(C)(C)c1ccc(CCC=O)cc1 [bourgeonal] | 1.19
6 | CCCCCCOC(=O)CCC [hexyl butyrate] | 0.476
7 | CC12C=CCC1C1CCC3=CC(=O)CCC3(C)C1CC2 (stereo not drawn) [androstadienone] | 0.931
8 | CC12CCC(CC1)C(C)(C)O2 [cineole] | 1.04
9 | CC1=NC(C)SC1C (stereo not drawn) | 1.38
10 | CCCC(=O)O [butyric acid] | 1.54
11 | COc1ccccc1O [guaiacol] | 1.47
12 | O=C1CCCCC1 [Cyclohexanone] | 0.849
13 | CCCCCCCOC(C)=O [heptyl acetate] | 0.717
14 | CC(=O)c1ccccc1 [acetophenone] | 1.67
15 | CCCCCOC(C)=O [n-amyl acetate] | 1.41
16 | CCCCCCCCC=O [nonyl aldehyde] | 1.07
17 | CC1COCc2cc3c(cc21)C(C)(C)C(C)C3(C)C (stereo not drawn) [galaxolide] | 2.54
18 | CC(C)CC(=O)O [isovaleric acid] | 1.3
19 | CC(C)C=O [isobutyraldehyde] | 0.69
20 | CCCCCCCC=O [octyl aldehyde] | 1.24
21 | CC1=CCC(C(C)(C)O)CC1 (stereo not drawn) [terpineol] | 1.22
22 | CC12C=CCC1C1CCC3CC(=O)CCC3(C)C1CC2 (stereo not drawn) [androstenone] | 1.82
23 | CC=Cc1ccc(O)c(OC)c1 [isoeugenol] | 0.827
